No constants are given. Whether binding was seen depends on the method and setting. Some binding calls cover weakened binding; strength is not graded here. For part of these data: Sequences can lack the tags named with a protein.
T1: soluble domain of human Tim16/Pam16 (human) (UniProt Q9Y3D7)
T1 sequence: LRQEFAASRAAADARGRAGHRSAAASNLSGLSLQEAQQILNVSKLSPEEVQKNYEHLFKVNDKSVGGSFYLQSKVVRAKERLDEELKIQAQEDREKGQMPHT

By UniProt entry, the sequences of proteins in these tests, tags left out. Residues count along the entry.
UniProt Q96DA6, residues 24-116: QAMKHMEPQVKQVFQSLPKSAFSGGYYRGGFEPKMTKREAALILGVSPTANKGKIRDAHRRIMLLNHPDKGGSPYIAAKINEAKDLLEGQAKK

T2: soluble domain of yeast Tim16/Pam16 (Saccharomyces cerevisiae) (UniProt P42949)
T2 sequence: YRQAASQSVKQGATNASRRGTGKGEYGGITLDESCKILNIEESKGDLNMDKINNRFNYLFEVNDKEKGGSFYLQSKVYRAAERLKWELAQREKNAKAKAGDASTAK


What was measured:
[1] = target: T1, soluble domain of human Tim16/Pam16 (human); assay: co-purification (Ni-agarose, then gel filtration); same strategy as for hTim14/Pam18s-yTim16/Pam16s; data not shown
[2] = target: T1, soluble domain of human Tim16/Pam16 (human); assay: cross-linking; purified complexes, 1 mM DSS, room temperature, 20 mM Na-Hepes pH 7.4, 200 mM NaCl, 100 mM KCl, 1 mM MgCl2, 15 uM protein; SDS-PAGE on 16% gels; both purified
[3] = target: T2, soluble domain of yeast Tim16/Pam16 (Saccharomyces cerevisiae); assay: as above
[4] = target: T2, soluble domain of yeast Tim16/Pam16 (Saccharomyces cerevisiae); assay: co-purification (Ni-agarose, then gel filtration); co-expressed in bacteria; only yTim16/Pam16s had an octahistidine tag; Ni-agarose column, tag cleaved with TEV protease, gel filtration; SDS-PAGE with Coomassie blue

Row | binding [1] | binding [2] | binding [3] | binding [4] | Molecule
1 | binds | binds | binds | binds | soluble domain of human Tim14/Pam18 (from UniProt Q96DA6 24-116) (domain or fragment)
2 | binds | binds | – | – | soluble domain of yeast Tim14/Pam18 (domain or fragment, UniProt Q07914 84-168) KSISKGLNGGKSTTAFLKGGFDPKMNSKEALQILNLTENTLTKKKLKEVHRKIMLANHPDKGGSPFLATKINEAKDFLEKRGISK

— paper PMC2695266
